According to the supplement of paper PMC4604168 (melanoma cell lines):
Some of the results follow. Single values are uncertain, as repeats are few or missing.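 Cells were imaged in 1,536-well plates, and nuclei stained with an antibody against cleaved PARP were counted against all DNA-stained nuclei to give the apoptosis fraction. Screening doses were chosen to leave most cells alive, and resting and induced cleaved-PARP levels differ strongly between cell lines.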

What was measured:
Assay in all cases: cleaved PARP positive nuclei fraction relative to DMSO control; melanoma cells; higher = more apoptosis
Settings in all cases: library dose: low library concentration; 72 h
CBRC034 = tested on: CBRC034 (line from a melanoma biopsy)
COLO792 = tested on: COLO792
COLO800 = tested on: COLO800
COLO829 = tested on: COLO829
G361 = tested on: G361
IPC-298 = tested on: IPC-298
IST-MEL1 = tested on: IST-MEL1
LB2518-MEL = tested on: LB2518-MEL
LOXIMVI = tested on: LOXIMVI
MZ2-MEL = tested on: MZ2-MEL
MeWo = tested on: MeWo
RPMI7951 = tested on: RPMI7951
RVH-421 = tested on: RVH-421
SkMel28 = tested on: SkMel28
SkMel30 = tested on: SkMel30
SkMel5 = tested on: SkMel5
UACC257 = tested on: UACC257
UACC62 = tested on: UACC62

SMILES | cleaved PARP positive nuclei fraction (CBRC034) | cleaved PARP positive nuclei fraction (COLO792) | cleaved PARP positive nuclei fraction (COLO800) | cleaved PARP positive nuclei fraction (COLO829) | cleaved PARP positive nuclei fraction (G361) | cleaved PARP positive nuclei fraction (IPC-298) | cleaved PARP positive nuclei fraction (IST-MEL1) | cleaved PARP positive nuclei fraction (LB2518-MEL) | cleaved PARP positive nuclei fraction (LOXIMVI) | cleaved PARP positive nuclei fraction (MZ2-MEL) | cleaved PARP positive nuclei fraction (MeWo) | cleaved PARP positive nuclei fraction (RPMI7951) | cleaved PARP positive nuclei fraction (RVH-421) | cleaved PARP positive nuclei fraction (SkMel28) | cleaved PARP positive nuclei fraction (SkMel30) | cleaved PARP positive nuclei fraction (SkMel5) | cleaved PARP positive nuclei fraction (UACC257) | cleaved PARP positive nuclei fraction (UACC62)
CC1(C)NC(=O)N(c2ccc([N+](=O)[O-])c(C(F)(F)F)c2)C1=O [nilutamide] + COc1ccc(-c2ccc3c(N4CCOCC4)nc(N4C[C@@H](C)O[C@@H](C)C4)nc3n2)cc1CO [KU0063794] (first compound 1 µM, partner dose 0.02 µM) | 44.6% | 100% | 199% | 89.3% | 46.8% | 98.6% | 126% | 81% | 68.2% | 107% | 96.6% | 83.4% | 58% | 108% | 20.4% | 35% | 81.6% | 50.2%
Cn1nnc2c(C(N)=O)ncn2c1=O [temozolomide] + COC(=O)c1sccc1S(=O)(=O)Nc1ccc(Nc2ccccc2)cc1OC [GSK0660] (first compound 2 µM, partner dose 1 µM) | 81.3% | 102% | 89.3% | 57.3% | 57.1% | 174% | 57.7% | 147% | 21.1% | 139% | 64.5% | 42% | 106% | 123% | 25.8% | 76.8% | 108% | 45.5%
C=CCn1c(=O)c2cnc(Nc3ccc(N4CCN(C)CC4)cc3)nc2n1-c1cccc(C(C)(C)O)n1 + COc1cc(N2CCC(N3CCN(C)CC3)CC2)ccc1Nc1ncc(Cl)c(Nc2ccccc2S(=O)(=O)C(C)C)n1 [NVP-TAE684] (first compound 0.02 µM, partner dose 0.08 µM) | 82.5% | 116% | 277% | 135% | 70.8% | 57.9% | 115% | 104% | 30.2% | 91.2% | 43.2% | 37.3% | 42.9% | 317% | 110% | 68.7% | 224% | 212%
NC(=O)Nc1cc(-c2cccc(F)c2)sc1C(=O)N[C@H]1CCCNC1 + O=C(O)C(=O)Nc1sc2c(c1C(=O)O)CCNC2 [TCS401] (first compound 0.02 µM, partner dose 1.66667 µM) | 200% | 112% | 137% | 113% | 68.4% | 154% | 76.5% | 72.9% | 90.2% | 90% | 50.1% | 90.2% | 69.7% | 111% | 34.5% | 120% | 69.3% | 78.9%
COCC[n+]1c2c(n(Cc3cnccn3)c1C)C(=O)c1ccccc1C2=O + O=c1cc(-c2cccc3c2Sc2ccccc2S3)oc(N2CCOCC2)c1 [KU55933] (first compound 0.0004 µM, partner dose 1 µM) | 44.1% | 98% | 248% | 118% | 93.2% | 146% | 63.9% | 93.5% | 51.9% | 210% | 112% | 218% | 45.4% | 103% | 14.5% | 76% | 99.8% | 79.2%
Cn1c(Nc2ccc(C(F)(F)F)cc2)nc2cc(Oc3ccnc(-c4ncc(C(F)(F)F)[nH]4)c3)ccc21 + O=C(Nc1ccccc1)c1cc([N+](=O)[O-])ccc1Cl [GW9662] (first compound 0.08 µM, partner dose 2 µM) | 101% | 265% | 95% | 141% | 209% | 615% | 42.7% | 135% | 121% | 242% | 130% | 118% | 73.3% | 321% | 43.1% | 154% | 1380% | 109%
NC(=O)Nc1cc(-c2cccc(F)c2)sc1C(=O)N[C@H]1CCCNC1 + COc1ccc(COc2ccc(Cc3cnc(N)nc3N)cc2OC)cc1 [GW2580] (first compound 0.02 µM, partner dose 1 µM) | 155% | 178% | 151% | 87.3% | 64.9% | 188% | 82.2% | 124% | 36.9% | 177% | 77.3% | 86.5% | 100% | 159% | 55.3% | 75.3% | 184% | 158%
C[C@@H]1CCN(C(=O)CC#N)C[C@@H]1N(C)c1ncnc2[nH]ccc12 + Oc1nc(-c2ccc(C(F)(F)F)cc2)nc2c1CSCC2 [XAV939] (first compound 1 µM, partner dose 2 µM) | 96% | 113% | 98.7% | 68% | 80.4% | 171% | 134% | 258% | 120% | 104% | 119% | 81.2% | 98% | 212% | 73.2% | 30.1% | 79.6% | 61%
Cn1cncc1[C@@](N)(c1ccc(Cl)cc1)c1ccc2c(c1)c(-c1cccc(Cl)c1)cc(=O)n2C [tipifarnib] + COc1ccc2c(c1)CCC1C2CCC2(C)C(NCCCCCCN3C(=O)C=CC3=O)CCC12 [U73122] (first compound 0.01 µM, partner dose 0.4 µM) | 100% | 155% | 141% | 118% | 170% | 110% | 169% | 115% | 82.6% | 51.9% | 91.5% | 119% | 25.2% | 136% | 58.7% | 94.4% | 129% | 453%

Part of the list above with just cleaved PARP positive nuclei fraction (RVH-421).
SMILES | cleaved PARP positive nuclei fraction (RVH-421)
Cn1nnc2c(C(N)=O)ncn2c1=O [temozolomide] + COC(=O)c1sccc1S(=O)(=O)Nc1ccc(Nc2ccccc2)cc1OC [GSK0660] (first compound 2 µM, partner dose 1 µM) | 106%
C=CCn1c(=O)c2cnc(Nc3ccc(N4CCN(C)CC4)cc3)nc2n1-c1cccc(C(C)(C)O)n1 + COc1cc(N2CCC(N3CCN(C)CC3)CC2)ccc1Nc1ncc(Cl)c(Nc2ccccc2S(=O)(=O)C(C)C)n1 [NVP-TAE684] (first compound 0.02 µM, partner dose 0.08 µM) | 42.9%
